# ± gives the standard deviation. Only a part is listed here, and it is no random draw. Many of these values have a large error.
# Test system: MILI (PIWIL2) piRISC loaded with piRNA #1 (26 nt)
# Experiment: pre-steady-state target cleavage rate (min^-1); MIWI and MILI are mouse PIWI proteins and EfPiwi is from a freshwater sponge; tags in brackets are library labels; higher = faster piRNA-guided slicing of the target
# Details: guide: piRNA #1 5'p-UGAGGUAGUAGGUUGUAUAGUAUCCA; auxiliary factor: 500 nM mouse GTSF1
# Procedure, shortened: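 Sequencing of uncleaved targets, normalised to depth and to weakly complementary targets, was the readout of this Cleave-'n-Seq assay. A transcribed, DNA-blocked target RNA library (0.1 nM) was mixed with 1 nM active affinity-purified piRISC carrying one synthetic guide, with or without 500 nM GTSF1 partner protein, in HEPES–potassium acetate buffer at 33 °C for 0–8 or 0–960 min. Three trials were pooled, k3 was capped at 0.0001 min^-1, and a burst-and-steady-state fit gave the pre-steady-state cleavage rate.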
row,Sequence,pre-steady-state target cleavage rate
1,GGAGACCAUACUAUACAACCUUCUACCUGA,0.00324 ± 0.0032
2,GGAGACCUAUGAUAUCAACCUACUAGCACA,0.000179 ± 0.013
3,GGAGACGAUACUAUACAACCUAGAACCUCA,0.0145 ± 0.0064
4,GGAGAGGAUACUAUUCAUCCUACUACCUCA,0.273 ± 0.02
5,GGAGACCUAUGAAUUCAACCUAGUACCUCA,0.00028 ± 0.0096
6,GGAGACCUAUGAUAAGAACCUACUACCACA,0.000201 ± 0.011
7,GGAGACCUAUGAUAUGUACCUACUACGCUCA,0.000101 ± 0.028
8,GGAGACCUUACUAUACAACCACUACCUCA,0.00164 ± 0.0048
9,GGAGACCAUACUAUACAACCUAAUACCUCA,0.117 ± 0.018
10,GGAGAGGAUACUAUACAACCUUCUUCCUCA,0.00104 ± 0.0056
11,GGAGUGGAAACUAUACUACCUACUACCUCA,0.193 ± 0.016
12,GGAGACGAUACUAUACUACCUAGUACCUCA,0.0742 ± 0.015
13,GGAGUGGAUACUAUACAACCUACUACCUGA,0.0915 ± 0.011
14,GGAGACCUAUGAUAACAACCUAGAUGGAGA [g9:g16:cont:t1A],0.000143 ± 0.021
15,GGAGAGGAUACUAUAGAACCUACUACCUGA,0.0217 ± 0.005
16,GGAGACCUAUGAUAUCAACCUACUUGGAGA [g7:g15:cont:t1A],0.000106 ± 0.022

# Two successive entries out of the list so far, for reference:
row,Sequence,pre-steady-state target cleavage rate
2,GGAGACCUAUGAUAUCAACCUACUAGCACA,0.000179 ± 0.013
3,GGAGACGAUACUAUACAACCUAGAACCUCA,0.0145 ± 0.0064
